A short description of the test: IkB Signaling. As to conditions: ABC-DLBCL IkBa-CBG/CBR dual luciferase ratio (green luciferase fused to IkBa over red control in OCI-Ly3 lymphoma cells), 4 h. In outline: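 In this assay, an IκBα–CBG68 fusion accumulates when IKK-driven degradation is blocked; native CBR normalizes for cell number. OCI-Ly3 cells were treated 4 h with compound and doxycycline, then green and red light read after Chroma-Glo addition.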
The mark [1] stands for this setting: measured here: control luc red channel unless noted.
Where [2] appears, read: measured here: IkB-luc green channel.
Where [3] appears, read: measured here: control luc red channel.

This is one part of the list. Shown are side measurements of this screen, not its main read-out; they come without a call. The list favours compounds with an active or inconclusive main result. The note in brackets gives the kind of curve behind each potency; many fits are weak.

Consider `CCOc1ccc(N(CC(=O)Nc2ccc(F)cc2F)S(=O)(=O)c2c(C)[nH]c(=O)[nH]c2=O)cc1`, for which the AC50 under setting [1] was 15.8 µM [falling, partial curve].

Turning to `CN1C(=O)c2ccccc2Sc2ccc(NC(=O)Nc3ccccc3F)cc21`, the half-maximal activity concentration (AC50) under setting [1] is 7.94 µM [falling, partial curve].

Consider `Fc1ccc(-c2cc3nc(-c4ccccc4)cc(N4CCOCC4)n3n2)cc1`, for which the AC50 under setting [1] is 12.6 µM [falling, partial curve].

`COc1ccc(CNC(=O)C(=O)NCC(c2cccs2)S(=O)(=O)c2ccc(F)cc2)cc1` (configuration not stated): the half-maximal activity concentration (AC50) under setting [1] is 25.1 µM [falling, single point].

Take `CCOCCCn1c(=N)c(S(=O)(=O)c2ccc(C)cc2)cc2c(=O)n3cccc(C)c3nc21`: under setting [1], the half-maximal activity concentration (AC50) was 0.398 µM [rising, full curve].

As for `COc1ccc(CN(CCC(c2ccc3c(c2)OCO3)c2ccccc2OC)C(C)=O)cc1` (configuration not stated), the half-maximal activity concentration (AC50) under setting [1] is 25.1 µM [falling, single point].

Consider `O=C(NCC(c1ccc2c(c1)OCO2)N1CCN(c2ccccc2)CC1)c1ccccc1F` (configuration not stated), for which the AC50 under setting [1] was 39.8 µM [falling, single point].

Take `COc1ccccc1OCC(=O)N(Cc1nc(-c2ccc(Cl)cc2)no1)C(C)C`: under setting [1], the AC50 was 12.6 µM [falling, partial curve].

With `CCOC(=O)c1ccc(OCC2c3cc(OC)c(OC)cc3CCN2C(=O)Cc2ccc(F)cc2)cc1` (configuration not stated), under setting [1], the AC50 was 39.8 µM [falling, single point].

For `Nc1cc(OC(=O)c2ccccc2Br)nn1S(=O)(=O)c1ccccc1`, under setting [1], the AC50 is 15.8 µM [falling, partial curve].

In the case of `O=C(NCc1ccco1)c1cc(-c2ccco2)on1`, the AC50 under setting [1] is 12.6 µM [falling, partial curve].

As for `Cc1ccc(CN2C(=O)c3ccccc3C2C(=O)NC2CCCCCC2)cc1` (configuration not stated), the concentration at half-maximal activity (AC50) under setting [1] was 39.8 µM [falling, single point].

On to `O=C(Nc1cccc(C(=O)N2CCCCC2)c1)c1nsc2ccccc12`, for which the concentration at half-maximal activity (AC50) under setting [1] was 3.16 µM [rising, partial curve].

Turning to `Cc1cc(O)c(C(c2ccc(F)cc2)N2CCCCC2)c(=O)n1Cc1ccco1` (configuration not stated), the AC50 under setting [1] was 39.8 µM [falling, single point].

As for `CCc1ccc(-n2nc(C)c3c(C(=O)Nc4cccc(C(F)(F)F)c4)cc(C)nc32)cc1`, under setting [1], the concentration at half-maximal activity (AC50) was 31.6 µM [falling, single point].

Turning to `Cc1cc(Nc2cccc(C(F)(F)F)c2)nc2ccc(NC(=O)c3ccc(N(C)C)cc3)cc12`, the concentration at half-maximal activity (AC50) under setting [1] was 15.8 µM [falling, partial curve].

Regarding `CCOc1ccccc1NC(=O)c1c(C)cc(C)nc1SCC(=O)c1cccc(OC)c1`, the AC50 under setting [1] is 20 µM [falling, partial curve, poor fit].

As for `CCOC(=O)CSc1nnc(CNc2ccc(F)cc2)o1`, the AC50 under setting [1] is 10 µM [falling, partial curve].

For the compound `Cc1cccc(C)c1Nc1c(-c2ccsc2)nc2ccccn12`, the AC50 under setting [1] was 15.8 µM [falling, partial curve].

Take `Clc1ccc2c(c1)C1OCCC1C(c1ccco1)N2` (configuration not stated): the half-maximal activity concentration (AC50) is 39.8 µM [falling, single point] under setting [2] and 20 µM [falling, partial curve] under setting [3].

`COc1ccc(OC)c(N=Cc2c(O)[nH]c3ccccc23)c1`: the concentration at half-maximal activity (AC50) under setting [1] was 0.158 µM [falling, full curve, poor fit].

As to `O=C(CN1CCN(c2ccc(Cl)cc2)CC1)Nc1ccc(F)cc1F`, the AC50 under setting [1] is 1.58 µM [falling, full curve].

Regarding `COC(=O)Cn1c(=O)c2c(nc3n2CCN3c2cccc(C)c2)n(C)c1=O`, under setting [1], the half-maximal activity concentration (AC50) is 25.1 µM [falling, partial curve].

As for `COC(=O)c1ccc(C(=O)OC)c(NC(=O)CN2CCN(c3ccccc3OC)CC2)c1`, the AC50 under setting [1] was 31.6 µM [falling, partial curve].

For `Nc1ccc(-c2cnc(-c3ccc(N)cc3)nc2)cc1`, the concentration at half-maximal activity (AC50) under setting [1] was 25.1 µM [falling, partial curve].

Consider `COc1ccc2nc3sc(C(=O)Nc4ccccc4F)cc3cc2c1`, for which the concentration at half-maximal activity (AC50) under setting [1] is 25.1 µM [falling, partial curve].

Consider `CCN(CC)S(=O)(=O)c1ccc(NC(=O)[C@H](CSCc2ccccc2)N2Cc3ccccc3C2=O)cc1`, for which, under setting [1], the AC50 was 1 µM [rising, full curve].

Consider `O=S(=O)(NCCc1ccccc1)c1ccc(N2CCCCS2(=O)=O)cc1`, for which, under setting [1], the AC50 is 20 µM [falling, partial curve].

Take `O=c1cc(CN2CCN(S(=O)(=O)c3ccc(Cl)cc3)CC2)nc2sc(-c3ccccc3F)nn12`: the concentration at half-maximal activity (AC50) under setting [1] is 10 µM [falling, partial curve].

With `Cc1cc(C)c(N2CCN(S(=O)(=O)N3CCCCCC3)CC2)c(C)c1`, the AC50 under setting [1] is 20 µM [falling, partial curve].

In the case of `CCOc1ccc(NS(=O)(=O)c2ccc3[nH]cc(C(=O)NCc4ccco4)c(=O)c3c2)cc1`, the AC50 under setting [1] was 10 µM [falling, partial curve].

For `COc1ccc(C(=O)O)cc1Nc1nc2ccc(C)cc2n2cnnc12`, under setting [1], the concentration at half-maximal activity (AC50) is 2 µM [rising, partial curve, poor fit].

Turning to `Cc1ccc(C)c(N2CCN(c3nc4ccccc4c4nc(CCn5nc(C)cc5C)nn34)CC2)c1`, the concentration at half-maximal activity (AC50) under setting [1] was 39.8 µM [falling, single point].

For the compound `CCN(CC)S(=O)(=O)c1cccc(-c2nnc(SCC(=O)NCCC3=CCCCC3)n2N)c1`, under setting [1], the AC50 was 20 µM [falling, partial curve].

For `O=C(Nc1ccccc1)c1ccccc1OCC(O)CN1C(=O)c2ccccc2S1(=O)=O` (configuration not stated), the half-maximal activity concentration (AC50) under setting [1] was 31.6 µM [falling, single point].

As to `CC1(C)C(=O)N(CC(=O)Nc2ccc(Cl)cc2)c2ccccc21`, the concentration at half-maximal activity (AC50) under setting [1] was 12.6 µM [falling, partial curve, poor fit].

As for `CCC(C)NC(=O)c1cc2c(Cl)nc3ccc(C)cc3c2s1` (configuration not stated), under setting [1], the AC50 is 0.126 µM [rising, full curve].

Take `O=C(NCc1cccs1)Nc1ccc2c(c1)OCO2`: the half-maximal activity concentration (AC50) under setting [1] was 12.6 µM [falling, partial curve].

Take `COc1ccccc1-c1nnc(Nc2nc3c(OC)cccc3s2)o1`: the AC50 under setting [2] is 1 µM [rising, full curve] and the AC50 under setting [3] was 0.0158 µM [falling, full curve].

On to `CCc1nn2c(=O)cc(COC(=O)c3ccccc3NC(=O)COc3ccccc3C)nc2s1`, for which the concentration at half-maximal activity (AC50) under setting [1] is 0.794 µM [falling, full curve].

Broadly, the AC50 is the concentration at which the activity in the assay is half-maximal.

Source of the values: PubChem BioAssay AID445 (National Center for Advancing Translational Sciences (NCATS), 2006).
